Consider 2 substances from paper PMC8056046.

Protein sequences, listed by entry. Tags and fused reporters are not part of them.
UniProt Q00987: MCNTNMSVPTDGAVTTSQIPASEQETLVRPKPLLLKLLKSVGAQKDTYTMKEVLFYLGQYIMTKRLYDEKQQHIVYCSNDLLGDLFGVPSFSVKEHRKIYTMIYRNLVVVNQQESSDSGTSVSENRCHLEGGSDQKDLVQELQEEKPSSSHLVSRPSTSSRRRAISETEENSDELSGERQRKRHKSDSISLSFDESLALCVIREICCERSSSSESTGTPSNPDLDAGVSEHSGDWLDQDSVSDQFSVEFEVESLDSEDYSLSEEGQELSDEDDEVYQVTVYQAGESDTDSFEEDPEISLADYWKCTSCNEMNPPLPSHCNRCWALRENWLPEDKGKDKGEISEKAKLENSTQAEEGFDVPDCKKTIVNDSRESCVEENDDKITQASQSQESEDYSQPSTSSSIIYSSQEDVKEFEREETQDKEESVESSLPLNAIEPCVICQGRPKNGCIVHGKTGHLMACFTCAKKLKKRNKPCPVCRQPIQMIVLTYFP

For assay [1], the target named is T1, Flag-tagged small heterodimer partner (SHP-WT) (UniProt Q15466).
T1 sequence: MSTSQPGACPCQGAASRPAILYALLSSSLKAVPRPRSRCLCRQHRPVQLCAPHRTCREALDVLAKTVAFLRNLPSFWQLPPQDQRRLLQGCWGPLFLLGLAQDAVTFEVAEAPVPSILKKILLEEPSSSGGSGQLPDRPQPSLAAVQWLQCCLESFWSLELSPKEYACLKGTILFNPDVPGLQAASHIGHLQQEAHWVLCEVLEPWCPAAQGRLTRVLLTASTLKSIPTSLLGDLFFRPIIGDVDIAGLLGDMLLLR
As to the kind of experiment: co-IP; HEK293T cells transfected; Flag-SHP precipitated with anti-FLAG M2 magnetic beads, MDM2 detected with an anti-Myc antibody.

The target of assay [2] is T2, small heterodimer partner (SHP), endogenous in Lenti-FXR CaSki cells (human (endogenous in CaSki)) (UniProt Q15466).
T2 sequence: T1 sequence
As to the kind of experiment: co-IP; supernatants of Lenti-FXR CaSki cells incubated with 2 ug IgG or anti-SHP, protein G-Agarose beads, blot with anti-MDM2.

Results are given in words; binding and its absence hold for the method and conditions named. In cells and extracts the contact can be indirect. Some results given as binding are weak or reduced against the parent protein; the word gives no strength. For some assays here: Sequences can lack the tags named with a protein.

With “Myc-tagged murine double minute-2 (MDM2) (from UniProt Q00987 1-491)”, the binding result in assay [1] is recorded as “binds”.

As to “murine double minute-2 (MDM2), endogenous in Lenti-FXR CaSki cells (from UniProt Q00987 1-491)”, the binding result in assay [2] is recorded as “binds”.
